Experimental data: PubChem BioAssay AID1259287 (Sanger Institute, 2017)

Assay: 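Retest single siRNAs that may add killing with three colorectal cancer drugs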 (follow-up of hits)
Cell system: human HCT15 colorectal cancer cells
Reagents: single siRNA against human genes
Challenge: BYL719 1 µM, cetuximab 5 µg/ml or trametinib 10 nM, or DMSO vehicle
Read-out: 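Cell survival relative to non-targeting pool 2 wells, averaged across replicates, with a synergy score for each drug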
Reading the numbers: synergy score with BYL719 and synergy score with cetuximab and synergy score with trametinib: higher = stronger combined killing than expected
Call rule: 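a hit if BYL719, cetuximab or trametinib yields synergy greater than 0.10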
Calls: active = synergy with at least one drug; inactive = no synergy with any drug
This is one part, drawn at random, of 160 reagents tested. Of all reagents, 19 (12%) were called active. 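Viability seems capped at 1; calls apply to HCT15 cells only, not to validation across other lines.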 The numbers tell different reagents against one gene apart. Further read-outs or replicates are left out here. The record does not give: the amount of reagent, the time to read-out.

For CHD4 (GeneID 1108) #1, what does the deposit list?
synergy score with BYL719: -0.133; synergy score with cetuximab: -0.147; synergy score with trametinib: 0.0406; call: inactive

How did the screen score CHD4 (GeneID 1108) #2?
synergy score with BYL719: -0.242; synergy score with cetuximab: -0.0873; synergy score with trametinib: -0.0198; call: inactive

How did the screen score CHD4 (GeneID 1108) #3?
synergy score with BYL719: 0.0339; synergy score with cetuximab: -0.0458; synergy score with trametinib: 0.0248; call: inactive

What is on record for CHD4 (GeneID 1108) #4?
synergy score with BYL719: -0.0509; synergy score with cetuximab: -0.118; synergy score with trametinib: -0.127; call: inactive

With CSNK2A2 (GeneID 1459) #1, what was measured?
synergy score with BYL719: -0.168; synergy score with cetuximab: -0.046; synergy score with trametinib: -0.0912; call: inactive

For CSNK2A2 (GeneID 1459) #2, what does the deposit list?
synergy score with BYL719: -0.176; synergy score with cetuximab: -0.115; synergy score with trametinib: -0.0615; call: inactive

With CSNK2A2 (GeneID 1459) #3, what was measured?
synergy score with BYL719: 0.0151; synergy score with cetuximab: -0.0961; synergy score with trametinib: -0.0503; call: inactive

With CSNK2A2 (GeneID 1459) #4, what does the deposit list?
synergy score with BYL719: -0.148; synergy score with cetuximab: -0.102; synergy score with trametinib: -0.0284; call: inactive

Not a retest: an excerpt of the list.
CHD4 (GeneID 1108) #2 | synergy score with BYL719: -0.242; synergy score with cetuximab: -0.0873; synergy score with trametinib: -0.0198; call: inactive
CHD4 (GeneID 1108) #3 | synergy score with BYL719: 0.0339; synergy score with cetuximab: -0.0458; synergy score with trametinib: 0.0248; call: inactive

The list goes on.
With GTF2H1 (GeneID 2965) #1, what was measured?
synergy score with BYL719: 0.00165; synergy score with cetuximab: 0.0516; synergy score with trametinib: -0.069; call: inactive

Which result is listed for GTF2H1 (GeneID 2965) #2?
synergy score with BYL719: -0.0426; synergy score with cetuximab: -0.191; synergy score with trametinib: -0.246; call: inactive

What did the screen give for GTF2H1 (GeneID 2965) #3?
synergy score with BYL719: -0.136; synergy score with cetuximab: 0.0675; synergy score with trametinib: -0.0194; call: inactive

For GTF2H1 (GeneID 2965) #4, what was measured?
synergy score with BYL719: 0.175; synergy score with cetuximab: 0.126; synergy score with trametinib: 0.143; call: active

With PINK1 (GeneID 65018) #1, how do the results read?
synergy score with BYL719: -0.264; synergy score with cetuximab: -0.0588; synergy score with trametinib: -0.0412; call: inactive

With PINK1 (GeneID 65018) #2, what does the deposit list?
synergy score with BYL719: -0.152; synergy score with cetuximab: 0.0496; synergy score with trametinib: 0.0451; call: inactive

What did the screen give for PINK1 (GeneID 65018) #3?
synergy score with BYL719: -0.0385; synergy score with cetuximab: -0.119; synergy score with trametinib: -0.0293; call: inactive

For PINK1 (GeneID 65018) #4, what does the deposit list?
synergy score with BYL719: -0.0343; synergy score with cetuximab: -0.155; synergy score with trametinib: -0.0694; call: inactive
